No constants are given. Whether binding was seen depends on the method and setting. Some entries that bind do so weakly or less than the wild type. For some assays here: Tags and fused reporters may be left off the sequences shown.
Columns and labels:
[1] = target: T1, human Siglec-10 (sialic acid binding Ig-like lectin-10) on human CD4+ T-cells (human) (UniProt Q96LC7); assay: statement in the methods of Example 20, referring back to Example 13
T1 sequence: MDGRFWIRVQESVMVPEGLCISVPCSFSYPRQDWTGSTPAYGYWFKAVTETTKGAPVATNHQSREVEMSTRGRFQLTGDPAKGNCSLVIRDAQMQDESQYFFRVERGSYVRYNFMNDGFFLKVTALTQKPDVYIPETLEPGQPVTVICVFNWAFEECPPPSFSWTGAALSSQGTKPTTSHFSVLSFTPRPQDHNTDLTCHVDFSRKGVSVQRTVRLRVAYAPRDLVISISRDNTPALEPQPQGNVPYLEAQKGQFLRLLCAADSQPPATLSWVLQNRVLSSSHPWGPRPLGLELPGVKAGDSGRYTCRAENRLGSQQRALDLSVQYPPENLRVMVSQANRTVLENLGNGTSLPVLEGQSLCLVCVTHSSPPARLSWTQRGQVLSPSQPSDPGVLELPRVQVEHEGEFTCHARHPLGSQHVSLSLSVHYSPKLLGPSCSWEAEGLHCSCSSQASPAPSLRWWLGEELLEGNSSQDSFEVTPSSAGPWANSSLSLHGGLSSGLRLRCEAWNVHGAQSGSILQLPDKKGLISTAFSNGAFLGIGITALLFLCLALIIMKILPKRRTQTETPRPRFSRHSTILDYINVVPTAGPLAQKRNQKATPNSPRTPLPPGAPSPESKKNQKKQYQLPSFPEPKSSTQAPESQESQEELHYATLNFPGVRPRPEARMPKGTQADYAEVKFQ

[2] = target: T2, recombinant human Siglec-10-Fc (human) (UniProt Q96LC7); assay: inferred from reversal of suppression by CD52hi CD4+ T-cells with soluble Siglec-10-Fc (data not shown)
T2 sequence: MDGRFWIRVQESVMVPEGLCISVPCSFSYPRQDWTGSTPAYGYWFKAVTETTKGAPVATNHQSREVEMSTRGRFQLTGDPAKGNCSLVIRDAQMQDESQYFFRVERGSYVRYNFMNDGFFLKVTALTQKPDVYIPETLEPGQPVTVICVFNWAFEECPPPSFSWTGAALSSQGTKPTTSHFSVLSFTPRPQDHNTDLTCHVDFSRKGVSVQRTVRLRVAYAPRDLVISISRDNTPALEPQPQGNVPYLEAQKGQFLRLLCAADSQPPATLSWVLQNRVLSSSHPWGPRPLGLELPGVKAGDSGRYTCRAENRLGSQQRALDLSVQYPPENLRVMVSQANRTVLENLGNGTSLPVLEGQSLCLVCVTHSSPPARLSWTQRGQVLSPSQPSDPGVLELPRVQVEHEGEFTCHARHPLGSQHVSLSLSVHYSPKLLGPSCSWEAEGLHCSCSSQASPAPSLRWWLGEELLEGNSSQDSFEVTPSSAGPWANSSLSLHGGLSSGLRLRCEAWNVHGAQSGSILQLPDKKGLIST

B1: native soluble CD52 glycoprotein (human, released from CD52hi CD4+ T-cells and from cell lines) (peptide)
peptide: GQNDTSQTSSPS
modifications: asparagine (N)-linked terminal carbohydrate
With B1 as the binder, how does the binding [1] read?
Its binding is “binds”.

What about the binding [2] of the same binder?
Its binding is “binds”.

— patent US20140308209A1
